According to paper PMC11194063:
These are yes or no findings as the source states them, for the method shown. Binding seen in cells or lysates may run through a third protein. Some entries that bind do so weakly or less than the wild type. Where a sequence is shown, tags or fusion partners need not be part of it.

Sequences of proteins named here, by UniProt entry; tags and fusion partners are left off.
UniProt Q12343: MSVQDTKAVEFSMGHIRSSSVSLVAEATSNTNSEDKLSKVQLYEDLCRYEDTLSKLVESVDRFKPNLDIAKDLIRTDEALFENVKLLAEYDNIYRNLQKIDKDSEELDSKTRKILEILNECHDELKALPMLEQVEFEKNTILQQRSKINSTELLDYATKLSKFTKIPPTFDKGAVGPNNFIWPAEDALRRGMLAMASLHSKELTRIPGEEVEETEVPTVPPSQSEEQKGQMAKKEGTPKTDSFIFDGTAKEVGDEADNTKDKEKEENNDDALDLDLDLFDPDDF
UniProt Q12321: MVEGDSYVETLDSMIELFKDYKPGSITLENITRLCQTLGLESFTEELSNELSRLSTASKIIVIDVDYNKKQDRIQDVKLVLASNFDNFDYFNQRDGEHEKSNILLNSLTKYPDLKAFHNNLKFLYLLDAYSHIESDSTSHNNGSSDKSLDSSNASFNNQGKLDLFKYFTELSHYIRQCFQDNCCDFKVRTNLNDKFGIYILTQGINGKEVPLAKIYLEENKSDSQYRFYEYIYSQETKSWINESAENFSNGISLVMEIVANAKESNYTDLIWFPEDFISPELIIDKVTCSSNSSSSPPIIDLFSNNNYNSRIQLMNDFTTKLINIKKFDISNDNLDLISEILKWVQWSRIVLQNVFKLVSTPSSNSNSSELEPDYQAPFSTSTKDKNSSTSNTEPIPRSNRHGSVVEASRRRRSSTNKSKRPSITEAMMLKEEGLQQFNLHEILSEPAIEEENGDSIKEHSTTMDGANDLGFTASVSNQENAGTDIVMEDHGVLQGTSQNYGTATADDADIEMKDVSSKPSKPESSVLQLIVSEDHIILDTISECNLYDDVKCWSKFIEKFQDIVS

Legend:
[1] = target: T1, Flag-tagged Lsm8 (S. cerevisiae) (UniProt P47093); assay: co-IP; similar co-immunoprecipitation from chromatin of strains expressing Flag-tagged Lsm1 or Flag-tagged Lsm8; Med1 and Med4 detected
T1 sequence: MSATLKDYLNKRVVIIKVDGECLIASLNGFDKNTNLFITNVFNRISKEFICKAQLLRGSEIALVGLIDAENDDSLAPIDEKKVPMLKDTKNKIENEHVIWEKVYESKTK

[2] = target: T2, Flag-tagged Lsm1 (S. cerevisiae) (UniProt P47017); assay: as above
T2 sequence: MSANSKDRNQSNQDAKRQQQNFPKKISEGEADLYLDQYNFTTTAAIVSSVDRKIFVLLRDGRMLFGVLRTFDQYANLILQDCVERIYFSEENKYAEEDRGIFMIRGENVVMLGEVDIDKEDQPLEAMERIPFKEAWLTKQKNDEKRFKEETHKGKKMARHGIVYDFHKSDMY

[3] = target: T3, TAP-tagged Lsm3 (S. cerevisiae) (UniProt P57743); assay: co-IP; chromatin extract (released with 0.5 M ammonium sulfate) of the LSM3-TAP strain; anti-Protein A antibody on Protein A/G magnetic beads, 4 C overnight; washed with buffer X (40 mM HEPES pH 7.6, 10% glycerol, 150 mM KOAc, 1 mM DTT); blots with anti-Protein A and anti-Med1; untagged strain as negative control; two independent extracts
T3 sequence: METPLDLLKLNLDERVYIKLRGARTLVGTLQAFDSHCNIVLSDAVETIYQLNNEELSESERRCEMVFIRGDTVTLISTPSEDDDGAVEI

binding [1]	binding [2]	binding [3]	Substance
binds	binds	–	Med4 Mediator subunit (from UniProt Q12343 1-284)
binds	binds	binds	Med1 Mediator subunit (from UniProt Q12321 1-566)
